From article PMC12221368, “Long AKAP18 isoforms anchor ubiquitin specific proteinases and coordinate calcium reuptake at the sarcoplasmic reticulum” (The Journal of Biological Chemistry, 2025) come the findings set out here.

The chains behind the UniProt entries cited, without tags or fusion partners. Where a name states a change or a piece, a line headed by the entry shows the natural chain unless it says otherwise. A line that says so, or that is headed by a name, gives the form on record, which may keep a tag or linker. Residues count along the entry.
UniProt Q6JP77: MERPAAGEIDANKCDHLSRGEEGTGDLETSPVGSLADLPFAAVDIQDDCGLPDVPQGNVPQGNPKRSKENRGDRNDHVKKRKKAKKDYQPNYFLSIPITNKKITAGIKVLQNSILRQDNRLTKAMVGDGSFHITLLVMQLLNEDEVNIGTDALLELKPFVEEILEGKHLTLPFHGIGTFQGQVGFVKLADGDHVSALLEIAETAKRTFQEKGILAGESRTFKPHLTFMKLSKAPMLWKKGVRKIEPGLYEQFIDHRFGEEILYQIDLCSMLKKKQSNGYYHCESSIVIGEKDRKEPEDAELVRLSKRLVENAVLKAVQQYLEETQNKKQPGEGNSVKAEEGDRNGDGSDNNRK
central (CD) domain of AKAP18: residues 88-292 of Q6JP77
SERCA2 (endogenous, human cardiomyocytes) (P16615-2, form named): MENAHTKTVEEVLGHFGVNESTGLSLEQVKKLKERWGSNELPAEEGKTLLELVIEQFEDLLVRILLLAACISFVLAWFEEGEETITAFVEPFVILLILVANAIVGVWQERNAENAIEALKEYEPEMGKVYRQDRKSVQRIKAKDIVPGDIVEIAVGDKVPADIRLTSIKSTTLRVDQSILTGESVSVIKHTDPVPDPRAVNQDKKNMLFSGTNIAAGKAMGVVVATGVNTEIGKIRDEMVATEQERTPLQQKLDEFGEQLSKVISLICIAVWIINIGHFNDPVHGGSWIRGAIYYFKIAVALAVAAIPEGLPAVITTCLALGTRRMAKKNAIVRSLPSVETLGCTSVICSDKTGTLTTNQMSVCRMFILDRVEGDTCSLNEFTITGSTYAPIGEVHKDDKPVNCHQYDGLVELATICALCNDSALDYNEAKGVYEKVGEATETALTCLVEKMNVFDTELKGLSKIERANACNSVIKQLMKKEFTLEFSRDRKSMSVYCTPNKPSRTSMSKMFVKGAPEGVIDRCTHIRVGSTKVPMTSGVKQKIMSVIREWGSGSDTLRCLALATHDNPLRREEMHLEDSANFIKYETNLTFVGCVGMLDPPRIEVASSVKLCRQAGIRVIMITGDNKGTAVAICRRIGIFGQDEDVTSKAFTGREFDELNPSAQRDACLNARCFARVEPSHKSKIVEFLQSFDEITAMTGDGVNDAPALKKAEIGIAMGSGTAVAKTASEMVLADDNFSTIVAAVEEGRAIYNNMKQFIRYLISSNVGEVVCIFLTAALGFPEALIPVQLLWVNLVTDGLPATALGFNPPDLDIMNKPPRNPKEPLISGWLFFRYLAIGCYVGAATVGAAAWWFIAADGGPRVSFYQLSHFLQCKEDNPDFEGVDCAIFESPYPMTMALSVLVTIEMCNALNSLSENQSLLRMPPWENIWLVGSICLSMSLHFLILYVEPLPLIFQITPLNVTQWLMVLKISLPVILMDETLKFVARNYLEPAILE

No constants are given. Whether binding was seen depends on the method and setting. For some of these results: In cells and extracts the contact can be indirect. Some binding calls cover weakened binding; strength is not graded here. For some of these results: Where a sequence is shown, tags or fusion partners need not be part of it.

The target in experiment [1] is T1, USP4 (endogenous, human cardiomyocytes) (human (endogenous in HCM)) (UniProt Q13107).
T1 sequence: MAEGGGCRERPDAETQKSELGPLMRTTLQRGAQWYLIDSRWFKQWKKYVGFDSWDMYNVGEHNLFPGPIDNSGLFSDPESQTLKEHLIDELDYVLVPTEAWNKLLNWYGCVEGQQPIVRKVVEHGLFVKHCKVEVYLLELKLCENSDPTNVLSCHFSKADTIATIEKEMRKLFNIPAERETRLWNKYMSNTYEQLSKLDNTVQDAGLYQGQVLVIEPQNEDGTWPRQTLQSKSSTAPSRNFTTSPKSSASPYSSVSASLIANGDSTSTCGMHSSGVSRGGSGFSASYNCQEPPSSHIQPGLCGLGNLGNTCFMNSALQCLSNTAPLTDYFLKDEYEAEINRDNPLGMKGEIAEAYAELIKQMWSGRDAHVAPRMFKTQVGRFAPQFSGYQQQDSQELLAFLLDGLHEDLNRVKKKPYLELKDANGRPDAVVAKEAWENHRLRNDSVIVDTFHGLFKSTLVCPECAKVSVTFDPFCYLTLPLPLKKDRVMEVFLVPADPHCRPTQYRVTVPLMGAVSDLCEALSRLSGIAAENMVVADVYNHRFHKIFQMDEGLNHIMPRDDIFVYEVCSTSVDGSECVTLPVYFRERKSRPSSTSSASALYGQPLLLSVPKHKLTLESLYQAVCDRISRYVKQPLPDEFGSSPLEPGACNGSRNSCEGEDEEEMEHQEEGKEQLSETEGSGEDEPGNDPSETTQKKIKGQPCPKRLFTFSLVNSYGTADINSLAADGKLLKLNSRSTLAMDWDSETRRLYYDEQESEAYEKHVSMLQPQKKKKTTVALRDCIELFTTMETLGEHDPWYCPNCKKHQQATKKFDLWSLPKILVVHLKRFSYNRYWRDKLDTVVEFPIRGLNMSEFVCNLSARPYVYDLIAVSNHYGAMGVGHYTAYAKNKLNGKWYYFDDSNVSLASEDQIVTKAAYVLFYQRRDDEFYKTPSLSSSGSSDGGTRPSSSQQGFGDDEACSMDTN
Kind of experiment: co-IP; endogenous proteins, HCM (human cardiomyocyte) lysates; USP4 immune complexes against IgG control, immunoblot; in Figure 5A lysates with 32P ATP, without agonist, with cAMP stimulation, or with cAMP and PKI. For orientation: In western blotting, separated proteins are transferred to a membrane and probed.

The target of the next experiment is GFP-AKAP18δ (UniProt Q6JP77 1-353). Kind of experiment: co-IP; HEK293 cells cotransfected with GFP-AKAP18 isoforms and V5-USP4; lysis buffer 25 mM Hepes pH 7.4, 150 mM NaCl, 1% Triton X-100; rabbit anti-GFP IgG and protein A agarose, 2 h at 4 °C; anti-V5 blot; IgG controls.
A further experiment concerns the target GST-AKAP18δ (UniProt Q6JP77). Briefly: pull-down; GST pull-down of purified FLAG-USP4 with purified GST-AKAP18δ; SDS-PAGE with Coomassie staining and anti-FLAG immunoblot; both purified.
The target of experiment [2] is central (CD) domain of AKAP18 (UniProt Q6JP77). Kind of experiment: cross-linking; purified USP4 with the central domain of AKAP18 in 25 mM sodium phosphate buffer pH 7.4, PIR cross-linker (BDP; 0.1-1.0 mM); Coomassie gel; trypsin, LC-MS, xQuest; both purified.

For the molecule “SERCA2 (endogenous, human cardiomyocytes) (from UniProt P16615-2 1-997)”, the binding entry in experiment [1] is on record as “binds”.

B1: V5-tagged USP4 (enzyme, UniProt Q13107 1-963, looked up)
chain: T1 sequence
As to B1, the binding entry with GFP-AKAP18δ is on record as “binds”.

B2: purified FLAG tagged-USP4 (enzyme, UniProt Q13107 1-963)
chain: T1 sequence
As for B2, the binding entry (in the experiment with GST-AKAP18δ; in experiment [2]) was “binds” throughout.
